Structures are written as SMILES. The list shows a part of the results.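 Rule for the calls: active = mitochondrial OCR inhibition above 30% at 1 uM; inactive = 30% or less.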 Many values rest on one well or one pass, so single values are uncertain.

Experimental findings from the supplement of paper PMC10403144 are described below.

The first assay deals with Toxoplasma gondii RH tachyzoites. The assay is described as follows: inhibition of mitochondrial O2 consumption rate (% inhibition (relative to pre-injection OCR and atovaquone/antimycin A control)); higher = stronger ETC inhibition. As to conditions: 1 µM; injection port (sequential injection order): A.
For `COc1ccc(C2=NN(C3CCCCCC3)C(=O)C2(C)C)cc1OCCCCOc1ccc(-c2nn[nH]n2)cc1`, the “inhibition of mitochondrial O2 consumption rate” value (“inhibition” for short) is inactive: -3.15.

Consider `CCC(Sc1nc2ccccc2o1)C(=O)Nc1nccs1` (stereo not drawn), for which the “inhibition” value is inactive: -5.62.

For `CCc1nc2ccccc2n1CC(O)COc1cc(C)ccc1Cl` (stereo not drawn), the “inhibition” value was inactive: -14.2.

`Clc1cccc(C(c2ccc(CN3CCNCC3)cc2)n2ccnc2)c1` (stereo not drawn): the “inhibition” value was inactive: -3.6.

As to `O=C(NC1CCCCC1)N1CCN(Cc2ccc3c(c2)OCO3)CC1`, the “inhibition” value was inactive: 1.43.

With `CN1CCN(c2nccc3nc(-c4ccc(F)c(F)c4)[nH]c23)CC1`, the “inhibition” value is inactive: 0.12.

With `O=C(Nc1ccc(N2CCNCC2)cc1)c1ccn2ncc(-c3cccc(Cl)c3)c2n1`, the “inhibition” value was inactive: -3.31.

The assay is the same for the next values; noted with them: 1 µM; injection port (sequential injection order): B.
With `CC(=O)Nc1ccc(NC(=O)c2cc(-c3cc(Cl)ccc3O)[nH]n2)cc1`, the “inhibition” value was inactive: -1.57.

Consider `COCC(C)NC(=O)CSc1ncnc2sc(-c3ccccc3)cc12` (stereo not drawn), for which the “inhibition” value is inactive: -2.1.

Take `CNC(=O)c1nn(C)c2c1C(C)(C)Cc1cnc(Nc3ccc(N4CCN(C)CC4)cc3)nc1-2`: the “inhibition” value was inactive: -0.547.

`CCOc1ccc2cc(-c3nn(CC4CCN(C)CC4)c4ncnc(N)c34)ccc2c1`: the “inhibition” value was inactive: 3.66.

Take `CC1(C)Cc2c(c(N3CCOCC3)nc3snc(Br)c23)CO1`: the “inhibition” value is inactive: -5.38.

In the case of `O=C(NC1CC1)c1ccc(N2CCOc3ccc(Cl)cc32)s1`, the “inhibition” value was inactive: 2.37.

Consider `CCCCCCCCCCCCCCCCOP(=O)([O-])OCC[N+](C)(C)C`, for which the “inhibition” value is inactive: -9.06.

As to `Cc1ccc2[nH]c3c(NCCN(C)C)ncnc3c2c1`, the “inhibition” value was inactive: 4.81.

`Nc1ncc(-c2ccc(C(F)(F)F)nc2)cc1-c1ccc(C(F)(F)F)nc1`: the “inhibition” value is inactive: -5.64.

As to `COc1cccc(OC)c1C(=O)Nc1ccc(Cl)c(-c2nc3ccccc3s2)c1`, the “inhibition” value was inactive: -20.

Regarding `NC(CC(=O)c1ccc(Cl)cc1Cl)C(Cl)(Cl)Cl` (stereo not drawn), the “inhibition” value is inactive: -0.653.

Regarding `CN(C)c1cc(NC(=O)Nc2ccccc2)c2ccccc2n1`, the “inhibition” value was inactive: 3.23.

On to `Cc1ccc(NC(=O)c2cc(S(=O)(=O)NC(C)(C)C)ccc2C)nc1`, for which the “inhibition” value is inactive: 6.3.

In the case of `CC[C@@H]([C@H](C)O)n1ncn(-c2ccc(N3CCN(c4ccc(OC[C@@H]5CO[C@@](Cn6cncn6)(c6ccc(F)cc6F)C5)cc4)CC3)cc2)c1=O`, the “inhibition” value was inactive: -6.81.

The assay is the same for the next values; noted with them: 1 µM; injection port (sequential injection order): C.
As to `O=C(NCCc1ccn(-c2ccccc2)n1)C1CCCCC1`, the “inhibition” value was inactive: -21.8.

On to `CCc1ccccc1-n1c(C)cn2c3c(=O)n(C(C(=O)OC)C(C)C)c(=O)n(C)c3nc12` (stereo not drawn), for which the “inhibition” value is inactive: -7.29.

In the case of `COc1ccc2nccc(NC(=O)C3CCN(CCc4ccc(Cl)cc4)CC3)c2n1`, the “inhibition” value was inactive: 6.55.

On to `CC1=Nc2ccc(Cl)cc2C(c2ccccc2)N1CCNC(=O)CN(C)C` (stereo not drawn), for which the “inhibition” value is inactive: -14.4.

As to `CCNC(=O)C(C)Nc1nc(-c2cccnc2)nc2sc(C)c(C)c12` (stereo not drawn), the “inhibition” value was inactive: -5.78.

As for `CCC(Sc1nc2ccccc2o1)C(=O)Nc1nnc(C)s1` (stereo not drawn), the “inhibition” value was inactive: -26.4.

For the molecule `O=C(C1CCN(c2nnc(-n3cccc3)s2)CC1)N1CCC(Cc2ccccc2)CC1`, the “inhibition” value is inactive: 3.56.

In the case of `CC1CCCN(C(=O)C(C)Nc2cc(Cl)ccc2N2CCOCC2)C1` (stereo not drawn), the “inhibition” value is inactive: -14.1.

`CC(=O)Nc1ccc(-c2noc(CC3CCCN(Cc4cccc(F)c4C)C3)n2)cc1` (stereo not drawn): the “inhibition” value is inactive: -6.11.

`Clc1ccc(CN2CCN(C3=NCCN3)CC2)cc1Cl`: the “inhibition” value was inactive: -17.2.

Regarding `N#Cc1nc(-c2ccccc2F)oc1NCCc1ccccc1`, the “inhibition” value was inactive: -24.

Regarding `Nc1ncnc2c1c(Cc1cccc3ccccc13)nn2CC1CCNCC1`, the “inhibition” value is inactive: -24.9.

`Nc1ccc(C(=O)Nc2ccc(-c3nc4ccccc4o3)cc2)cc1`: the “inhibition” value is inactive: -4.03.

On to `CN1CCC(c2cc(-c3ccncc3)c(-c3ccc(F)cc3)[nH]2)CC1`, for which the “inhibition” value is inactive: -6.29.

For `CCN(CC)S(=O)(=O)c1ccc(C(=O)Nc2cc(C)nn2-c2nc(C)c(C)c(=O)[nH]2)cc1`, the “inhibition” value was inactive: 1.66.

`Nc1ncc(-c2cn[nH]c2)cc1-c1nc2cc(Cl)cnc2[nH]1`: the “inhibition” value is inactive: -4.3.

As for `CC(=O)N1CCc2cc3nc(C)cc(C)c3cc21`, the “inhibition” value is inactive: 6.55.
